Consider 1 substance from paper doi:10.1101/2023.12.01.569623.

Chains of the proteins cited; added tags and fusions are not shown.
UniProt Q9EQ09: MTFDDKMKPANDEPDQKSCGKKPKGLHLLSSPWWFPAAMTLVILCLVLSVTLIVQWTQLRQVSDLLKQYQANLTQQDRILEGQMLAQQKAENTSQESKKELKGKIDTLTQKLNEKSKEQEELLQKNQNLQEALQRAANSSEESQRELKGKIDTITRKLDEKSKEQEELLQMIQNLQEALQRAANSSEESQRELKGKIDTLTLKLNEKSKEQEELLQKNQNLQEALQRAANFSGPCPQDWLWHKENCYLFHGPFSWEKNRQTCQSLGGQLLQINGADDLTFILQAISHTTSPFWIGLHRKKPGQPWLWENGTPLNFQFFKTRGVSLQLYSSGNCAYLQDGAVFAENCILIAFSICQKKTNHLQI

The target in this assay is T1, endogenous Siglec-E of murine splenocytes (mouse (endogenous in splenocytes)) (UniProt Q91Y57).
T1 sequence: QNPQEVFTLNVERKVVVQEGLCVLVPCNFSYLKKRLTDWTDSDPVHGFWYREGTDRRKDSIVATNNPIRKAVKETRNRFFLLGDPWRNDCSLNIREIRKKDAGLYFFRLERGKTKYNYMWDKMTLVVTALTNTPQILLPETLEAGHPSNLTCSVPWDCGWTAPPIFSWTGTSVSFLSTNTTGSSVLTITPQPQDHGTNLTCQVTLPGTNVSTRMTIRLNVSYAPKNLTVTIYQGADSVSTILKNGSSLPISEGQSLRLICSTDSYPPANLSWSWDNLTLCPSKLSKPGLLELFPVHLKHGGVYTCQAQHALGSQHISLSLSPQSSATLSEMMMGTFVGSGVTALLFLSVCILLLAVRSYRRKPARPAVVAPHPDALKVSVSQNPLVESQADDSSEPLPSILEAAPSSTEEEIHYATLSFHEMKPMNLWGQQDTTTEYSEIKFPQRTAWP
As to the kind of experiment: co-IP.

No constants are given. Whether binding was seen depends on the method and setting. Binding seen in cells or lysates may run through a third protein. Some binding calls cover weakened binding; strength is not graded here.

In the case of “endogenous LOX-1 of murine splenocytes (from UniProt Q9EQ09 1-363) (receptor)”, the binding entry is listed as “binds”.
